Laboratory results from PubChem BioAssay AID248 (DTP/NCI, 2004).
The list is a part of this screen's results and no random one: it gathers tests that were run many times, whatever their T/C, doses with no T/C, and many T/C values between a quarter and a half above the control. Other doses and runs of a compound stand elsewhere. T/C gives the treated animals as a percentage of the vehicle group. Some doses have a count of surviving animals in place of a T/C: the source holds a T/C of zero for them, seemingly a mark for toxic or unscored doses. Some survivor counts are full or nearly so, which does not show that the dose was tolerated: survival well below the control is almost never listed, so the zero probably covers shortened survival too. Counts of survivors are from the toxicity check (mostly the fifth day) where no day follows; animals may have died later. Schedules are NCI's codes, taken here to give the interval after Q, in days (D) or hours (H), and the number of doses after X. Some doses were run more than once; the results are listed from low to high. Some schedules carry Z or #; the key to these is not given. For survival time, the PubChem record calls one and a half times the control and up active, and a quarter to a half above the control has no call in these data; cut-offs in other NCI protocols can differ. Some T/C values carry the count of animals alive at the toxicity check (mostly the fifth day); where none is given, no animal had died by that day.

System: L1210 leukemia ip in BDF1 mice, survival T/C
Experiment: NCI In Vivo Anticancer Drug Screen. Data for tumor model L1210 Leukemia (intraperitoneal) in B6D2F1 (BDF1) mice
Conditions: T/C endpoint: mean survival time, higher T/C = longer survival
[1] = dose: 100.0 mg/kg/injection, schedule: Q01DX009 (ip), vehicle: Klucel (hydroxypropylcellulose) (HPC)
[2] = dose: 200.0 mg/kg/injection, schedule: Q04DX003 (ip), vehicle: Klucel (hydroxypropylcellulose) (HPC)
[3] = dose: 400.0 mg/kg/injection, schedule: Q04DX003 (ip), vehicle: Klucel (hydroxypropylcellulose) (HPC)
[4] = dose: 400.0 mg/kg/injection, schedule: Q04DX002 (ip), vehicle: saline
[5] = dose: 100.0 mg/kg/injection, schedule: Q04DX002 (ip), vehicle: Klucel (hydroxypropylcellulose) (HPC)
[6] = dose: 200.0 mg/kg/injection, schedule: Q04DX002 (ip), vehicle: Klucel (hydroxypropylcellulose) (HPC)
[7] = dose: 400.0 mg/kg/injection, schedule: Q04DX002 (ip), vehicle: Klucel (hydroxypropylcellulose) (HPC)
[8] = dose: 400.0 mg/kg/injection, schedule: Q01DX001 (ip), vehicle: saline
[9] = dose: 100.0 mg/kg/injection, schedule: Q04DX003 (ip), vehicle: Klucel (hydroxypropylcellulose) (HPC)
[10] = dose: 100.0 mg/kg/injection, schedule: Q01DX009 (ip), vehicle: saline
[11] = dose: 200.0 mg/kg/injection, schedule: Q04DX003 (ip), vehicle: saline
[12] = dose: 80.0 mg/kg/injection, schedule: Q01DX001 (ip), vehicle: saline
[13] = dose: 400.0 mg/kg/injection, schedule: Q04DX003 (ip), vehicle: saline
[14] = dose: 50.0 mg/kg/injection, schedule: Q01DX009 (ip), vehicle: saline
[15] = dose: 400.0 mg/kg/injection, schedule: Q04DX003 (ip), vehicle: saline with Tween-80
[16] = dose: 200.0 mg/kg/injection, schedule: Q04DX002 (ip), vehicle: saline

## C[P+](c1ccc(F)cc1)(c1ccc(F)cc1)c1ccc(F)cc1
[1]
  survivor count: 6 of 6
[2]
  survivor count: 0 of 6
[3]
  survivor count: 0 of 6

## Cc1ccnc(/C=N/NC(N)=S)c1
[4]
  survivor count: 0 of 3

## O=[N+]([O-])c1cc(Cl)cc(Cl)c1O
dose: 50.0 mg/kg/injection, schedule: Q01DX009 (ip), vehicle: Klucel (hydroxypropylcellulose) (HPC)
  survivor count: 2 of 3
[5]
  survivor count: 0 of 3
[6]
  survivor count: 0 of 3
[7]
  survivor count: 0 of 3

## Cc1cccc(OS(=O)(=O)c2ccccc2[N+](=O)[O-])c1
dose: 200.0 mg/kg/injection, schedule: Q01DX009 (ip), vehicle: saline sonified
  survivor count: 6 of 6

## NCCCCC(N)C(=O)NCCCCCCNCCCCCCNC(=O)C(N)CCCCN (configuration not stated)
dose: 300.0 mg/kg/injection, schedule: Q01DX Z (ip), vehicle: saline
  survivor count: 0 of 6
[8]
  survivor count: 1 of 6

## NC(CSSCC(N)=NCCCCCSC12CC3CC(CC(C3)C1)C2)=NCCCCCSC12CC3CC(CC(C3)C1)C2
dose: 20.0 mg/kg/injection, schedule: Q04DX002 (ip), vehicle: Klucel (hydroxypropylcellulose) (HPC)
  survivor count: 2 of 3
dose: 40.0 mg/kg/injection, schedule: Q04DX002 (ip), vehicle: Klucel (hydroxypropylcellulose) (HPC)
  survivor count: 1 of 3
[5]
  survivor count: 0 of 3
[6]
  survivor count: 1 of 3
[7]
  survivor count: 0 of 3

## O=C(SCC(NSc1ccccc1[N+](=O)[O-])C(=O)O)c1ccccc1 (configuration not stated)
[9]
  survivor count: 6 of 6
[2]
  survivor count: 6 of 6
[3]
  survivor count: 6 of 6

## N#CC(C#N)=CN1CCOCC1
dose: 400.0 mg/kg/injection, schedule: Q04DX002 (ip), vehicle: saline with Tween-80
  survivor count: 0 of 3

## CCCCNCC1COc2cccc(OCC)c2O1 (configuration not stated)
[10]
  survivor count: 1 of 6
dose: 200.0 mg/kg/injection, schedule: Q01DX001 (ip), vehicle: saline
  survivor count: 0 of 4
[11]
  survivor count: 0 of 4
[8]
  survivor count: 0 of 4

## CCO/C(=C\[P+](c1ccccc1)(c1ccccc1)c1ccccc1)c1ccccc1
[12]
  survivor count: 2 of 6

## CCCCCCCCCCCCCCCCCC[N+](CCCC)(CCCC)CCCCCCCCCCCCCCCCCC (tested in a mixture with another compound)
dose: 400.0 mg/kg/injection, schedule: Q01DX001 (ip), vehicle: other
  survivor count: 6 of 6

## O=C1OC2(CCNCC2)C(=O)N1c1ccc(F)cc1
dose: 50.0 mg/kg/injection, schedule: Q01DX001 (ip), vehicle: carboxymethylcellulose (CMC)
  survivor count: 0 of 6

## Cc1ccc(C(=NN=C(N)N)c2ccc(C)cc2)cc1
dose: 30.0 mg/kg/injection, schedule: Q01DX Z (ip), vehicle: saline
  survivor count: 1 of 6
dose: 60.0 mg/kg/injection, schedule: Q01DX Z (ip), vehicle: saline
  survivor count: 2 of 6
dose: 120.0 mg/kg/injection, schedule: Q01DX Z (ip), vehicle: saline
  survivor count: 0 of 6

## S=C1N(C2CCCCC2)CCN1C1CCCCC1
[6]
  survivor count: 3 of 3
[7]
  survivor count: 3 of 3

## C=C(Br)CN(CCCC)C(C)=O
[9]
  survivor count: 6 of 6
dose: 400.0 mg/kg/injection, schedule: Q01DX009 (ip), vehicle: Klucel (hydroxypropylcellulose) (HPC)
  survivor count: 0 of 6
[3]
  survivor count: 1 of 6 and 2 of 6

## NCCCc1c(-c2ccccc2)nc(N)[nH]c1=O
[8]
  survivor count: 0 of 4

## CC1(C)OC2C(COC(=O)Oc3ccccc3)OC(n3cnc4c(=S)nc[nH]c43)C2O1 (configuration not stated)
dose: 50.0 mg/kg/injection, schedule: Q01DX009 (ip), vehicle: saline with Tween-80
  survivor count: 2 of 6
dose: 200.0 mg/kg/injection, schedule: Q01DX009 (ip), vehicle: saline with Tween-80
  survivor count: 2 of 6
[3]
  survivor count: 2 of 6

## COc1ccc(-c2cc(C(=O)O)c3cccc(C(F)(F)F)c3n2)cc1
[11]
  survivor count: 6 of 6
[13]
  survivor count: 0 of 6

## CCCCNC(=O)c1cc(NC(=O)Nc2ccc(C3=NCCN3)cc2)cc(NC(=O)Nc2ccc(C3=NCCN3)cc2)c1
dose: 31.0 mg/kg/injection, schedule: Q01DX Z (ip), vehicle: carboxymethylcellulose (CMC)
  T/C: 126 and 132 % of control
dose: 62.0 mg/kg/injection, schedule: Q01DX Z (ip), vehicle: carboxymethylcellulose (CMC)
  T/C: 131 % of control
dose: 500.0 mg/kg/injection, schedule: Q01DX Z (ip), vehicle: carboxymethylcellulose (CMC)
  survivor count: 2 of 6

## CC1=C(C)C(=O)OC1=O
[3]
  survivor count: 6 of 6

## Br/C=C(\Br)CBr
dose: 300.0 mg/kg/injection, schedule: Q01DX001 (sc), vehicle: olive oil, sesame oil, peanut oil
  survivor count: 0 of 6

## COc1ccc2c(c1)CCC1(C)C2=CC(=O)/C1=C\[O-].COc1ccc2c(c1)CCC1(C)C2=CC(=O)/C1=C\[O-].[Cu+2] (configuration not stated)
dose: 200.0 mg/kg/injection, schedule: Q04DX003 (ip), vehicle: saline sonified
  survivor count: 6 of 6
dose: 400.0 mg/kg/injection, schedule: Q04DX003 (ip), vehicle: saline sonified
  survivor count: 6 of 6

## CCCCS(=O)(=O)Nc1ccc(Nc2c3ccccc3nc3ccccc23)c(OC)c1
dose: 6.25 mg/kg/injection, schedule: Q01DX009 (ip), vehicle: saline
  T/C: 127 % of control
dose: 12.5 mg/kg/injection, schedule: Q01DX009 (ip), vehicle: Klucel (hydroxypropylcellulose) (HPC)
  T/C: 139 % of control
dose: 25.0 mg/kg/injection, schedule: Q01DX009 (ip), vehicle: Klucel (hydroxypropylcellulose) (HPC)
  T/C: 148 % of control
[14]
  T/C: 137 % of control [5 of 6 alive]
[1]
  survivor count: 6 of 6
dose: 200.0 mg/kg/injection, schedule: Q01DX009 (ip), vehicle: Klucel (hydroxypropylcellulose) (HPC)
  survivor count: 6 of 6

## CCOC(=O)/C=C/c1ccco1
[15]
  survivor count: 3 of 6

## Cc1cccc(Br)[n+]1[O-]
dose: 200.0 mg/kg/injection, schedule: Q01DX009 (ip), vehicle: saline
  survivor count: 5 of 6
[13]
  survivor count: 1 of 6

## CC1(C)NC(=O)C2CC21C (configuration not stated)
[16]
  survivor count: 0 of 3
[4]
  survivor count: 1 of 3

## COc1ccc2c(c1OC(C)=O)-c1cc(OC(C)=O)cc3c1C(C2)N(C)CC3 (configuration not stated)
dose: 200.0 mg/kg/injection, schedule: Q04DX003 (ip), vehicle: DMSO
  survivor count: 5 of 5
dose: 400.0 mg/kg/injection, schedule: Q04DX003 (ip), vehicle: DMSO
  survivor count: 4 of 5

## CCC(N)C(O)C(F)(F)C(F)(F)C(F)(F)F (configuration not stated)
[8]
  survivor count: 1 of 4

## C=CC(C)(C)c1ccccc1O
[15]
  survivor count: 5 of 6

## CCCCCCCCCCCc1cc(=O)n(-c2cc(Cl)ccc2Cl)n1C
dose: 200.0 mg/kg/injection, schedule: Q04DX003 (ip), vehicle: saline with Tween-80
  survivor count: 4 of 6
[15]
  survivor count: 2 of 6

## CC(=O)N(N=O)c1ccc(C)cc1
[12]
  survivor count: 0 of 4

## CCCCOC(CN)C(Cl)(Cl)Cl (configuration not stated)
dose: 25.0 mg/kg/injection, schedule: Q01DX009 (ip), vehicle: saline
  T/C: 94, 95, 103, 104 % of control
dose: 25.0 mg/kg/injection, schedule: Q04DX002 (ip), vehicle: saline
  T/C: 91, 109, 112, 126 % of control
[14]
  T/C: 95, 97, 100 % of control [5 of 6 alive]
  survivor count: 3 of 3
dose: 50.0 mg/kg/injection, schedule: Q04DX002 (ip), vehicle: saline
  T/C: 97, 100, 105, 109 % of control
[10]
  T/C: 98 [5 of 6 alive], 108, 114 % of control
  survivor count: 3 of 3
dose: 100.0 mg/kg/injection, schedule: Q04DX002 (ip), vehicle: saline
  T/C: 89, 102, 104 [5 of 6 alive], 108 [2 of 3 alive], 111, 119 % of control
[16]
  survivor count: 1 of 6
[4]
  survivor count: 0 of 3 and 0 of 6

## CC(C)c1cccc(OS(=O)(=O)c2ccccc2[N+](=O)[O-])c1
[2]
  survivor count: 6 of 6
